Test [1] deals with T1, N-terminally truncated SLN1 protein (∆SLN1) (barley (Hordeum vulgare)) (UniProt Q8W127).
T1 sequence: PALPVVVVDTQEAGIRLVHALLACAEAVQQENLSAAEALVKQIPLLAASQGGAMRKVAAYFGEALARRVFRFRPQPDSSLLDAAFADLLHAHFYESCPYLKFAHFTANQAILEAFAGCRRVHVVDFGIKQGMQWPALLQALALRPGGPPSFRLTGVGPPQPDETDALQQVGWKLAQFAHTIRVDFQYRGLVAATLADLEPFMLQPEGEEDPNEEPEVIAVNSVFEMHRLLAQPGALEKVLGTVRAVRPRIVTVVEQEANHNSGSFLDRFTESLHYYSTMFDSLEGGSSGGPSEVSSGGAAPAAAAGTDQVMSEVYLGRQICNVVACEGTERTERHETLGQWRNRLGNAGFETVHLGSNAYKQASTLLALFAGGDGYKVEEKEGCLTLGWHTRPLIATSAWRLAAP
The test is described as follows: two-hybrid; pairwise tests in MaV203 yeast; growth spotted on SD-Leu-Trp-His with 50 and 100 mM 3-AT and on SD-Leu-Trp-Ura, 30 °C for 72 h, three biological replicates.

For test [2], the target named is T2, full-length RHT-D1, BiFC fusion (wheat (Triticum aestivum)) (UniProt Q9ST59).
T2 sequence: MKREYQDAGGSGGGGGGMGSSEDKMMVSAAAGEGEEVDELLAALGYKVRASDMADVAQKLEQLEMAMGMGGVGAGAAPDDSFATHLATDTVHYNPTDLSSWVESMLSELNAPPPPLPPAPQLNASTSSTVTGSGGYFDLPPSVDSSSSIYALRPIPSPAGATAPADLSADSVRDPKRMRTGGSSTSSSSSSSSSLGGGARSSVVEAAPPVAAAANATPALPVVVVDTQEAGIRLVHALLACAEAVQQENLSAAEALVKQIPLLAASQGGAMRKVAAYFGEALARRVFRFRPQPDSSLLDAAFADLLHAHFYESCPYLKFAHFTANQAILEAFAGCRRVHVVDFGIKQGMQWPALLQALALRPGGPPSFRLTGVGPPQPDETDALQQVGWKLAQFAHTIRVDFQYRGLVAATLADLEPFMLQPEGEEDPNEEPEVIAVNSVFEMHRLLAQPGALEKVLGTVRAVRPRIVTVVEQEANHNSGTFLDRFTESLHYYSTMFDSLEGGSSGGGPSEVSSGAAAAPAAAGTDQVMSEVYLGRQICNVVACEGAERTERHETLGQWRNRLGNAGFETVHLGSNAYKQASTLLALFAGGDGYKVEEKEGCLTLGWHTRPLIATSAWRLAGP
The test is described as follows: split reporter; BiFC in N. benthamiana leaves infiltrated with A. tumefaciens GV3101, confocal microscopy after 3 d, DAPI staining; signal in the nucleus.

From paper PMC12867750 come the findings set out here.

Results are given in words; binding and its absence hold for the method and conditions named. Binding calls can cover weak binding; strength is not graded here. For some of these results: In cells and extracts the contact can be indirect. For some of these results: Where a sequence is shown, tags or fusion partners need not be part of it.

Take “HvSDW3 (SEMI-DWARF 3), full-length HORVU.MOREX.r3.2HG0131300 protein (from UniProt F2D0L0)”: in test [1], the binding entry was “binds”. Same read-out and setting: the value for “HvSDW3 G110E (sdw3e) (barley (Hordeum vulgare))” was “binds”; that for “HvSDW3 L404F (sdw3g) (barley (Hordeum vulgare))” was “binds”. “full-length IDD5-A1, BiFC fusion (wheat (Triticum aestivum))”: in test [2], the binding entry is given as “binds”.
